The test has as its target recombinant CLK modified with epitope tags (bait of the proteomic screen) (Drosophila melanogaster) (UniProt O61735). Put plainly: affinity purification with mass spectrometry; epitope-tagged CLK purified from cytoplasmic and nuclear extracts of S2 cells; label-free quantitative MS/MS; Brahma subunits found specifically in nuclear extracts.

Protein sequences, listed by entry. Tags and fused reporters are not part of them.
UniProt O61735: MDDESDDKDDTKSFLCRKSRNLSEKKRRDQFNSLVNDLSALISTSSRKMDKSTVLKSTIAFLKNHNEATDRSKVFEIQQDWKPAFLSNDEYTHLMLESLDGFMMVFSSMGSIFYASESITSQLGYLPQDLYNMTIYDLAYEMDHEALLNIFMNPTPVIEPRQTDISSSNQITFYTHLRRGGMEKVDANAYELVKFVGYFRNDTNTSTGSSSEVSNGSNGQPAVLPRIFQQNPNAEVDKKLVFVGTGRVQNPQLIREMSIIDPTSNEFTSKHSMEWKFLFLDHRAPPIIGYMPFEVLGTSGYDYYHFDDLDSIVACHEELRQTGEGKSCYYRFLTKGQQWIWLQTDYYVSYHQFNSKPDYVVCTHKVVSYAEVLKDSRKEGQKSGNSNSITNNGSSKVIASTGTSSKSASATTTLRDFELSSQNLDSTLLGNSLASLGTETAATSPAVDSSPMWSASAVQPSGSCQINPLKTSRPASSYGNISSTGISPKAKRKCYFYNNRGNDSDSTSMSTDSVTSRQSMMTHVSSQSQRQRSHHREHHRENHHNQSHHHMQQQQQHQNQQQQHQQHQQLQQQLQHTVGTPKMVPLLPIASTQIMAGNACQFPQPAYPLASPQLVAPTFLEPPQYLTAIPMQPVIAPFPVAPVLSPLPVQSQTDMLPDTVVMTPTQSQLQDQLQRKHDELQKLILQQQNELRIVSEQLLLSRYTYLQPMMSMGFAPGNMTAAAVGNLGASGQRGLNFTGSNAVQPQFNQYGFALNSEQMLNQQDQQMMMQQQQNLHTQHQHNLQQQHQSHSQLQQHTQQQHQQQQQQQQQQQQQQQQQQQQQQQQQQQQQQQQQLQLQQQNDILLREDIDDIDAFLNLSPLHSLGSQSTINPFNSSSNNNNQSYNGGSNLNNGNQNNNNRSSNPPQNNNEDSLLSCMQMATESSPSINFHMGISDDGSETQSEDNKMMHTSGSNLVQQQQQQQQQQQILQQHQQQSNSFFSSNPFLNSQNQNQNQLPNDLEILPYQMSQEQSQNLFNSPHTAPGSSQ
UniProt P25439: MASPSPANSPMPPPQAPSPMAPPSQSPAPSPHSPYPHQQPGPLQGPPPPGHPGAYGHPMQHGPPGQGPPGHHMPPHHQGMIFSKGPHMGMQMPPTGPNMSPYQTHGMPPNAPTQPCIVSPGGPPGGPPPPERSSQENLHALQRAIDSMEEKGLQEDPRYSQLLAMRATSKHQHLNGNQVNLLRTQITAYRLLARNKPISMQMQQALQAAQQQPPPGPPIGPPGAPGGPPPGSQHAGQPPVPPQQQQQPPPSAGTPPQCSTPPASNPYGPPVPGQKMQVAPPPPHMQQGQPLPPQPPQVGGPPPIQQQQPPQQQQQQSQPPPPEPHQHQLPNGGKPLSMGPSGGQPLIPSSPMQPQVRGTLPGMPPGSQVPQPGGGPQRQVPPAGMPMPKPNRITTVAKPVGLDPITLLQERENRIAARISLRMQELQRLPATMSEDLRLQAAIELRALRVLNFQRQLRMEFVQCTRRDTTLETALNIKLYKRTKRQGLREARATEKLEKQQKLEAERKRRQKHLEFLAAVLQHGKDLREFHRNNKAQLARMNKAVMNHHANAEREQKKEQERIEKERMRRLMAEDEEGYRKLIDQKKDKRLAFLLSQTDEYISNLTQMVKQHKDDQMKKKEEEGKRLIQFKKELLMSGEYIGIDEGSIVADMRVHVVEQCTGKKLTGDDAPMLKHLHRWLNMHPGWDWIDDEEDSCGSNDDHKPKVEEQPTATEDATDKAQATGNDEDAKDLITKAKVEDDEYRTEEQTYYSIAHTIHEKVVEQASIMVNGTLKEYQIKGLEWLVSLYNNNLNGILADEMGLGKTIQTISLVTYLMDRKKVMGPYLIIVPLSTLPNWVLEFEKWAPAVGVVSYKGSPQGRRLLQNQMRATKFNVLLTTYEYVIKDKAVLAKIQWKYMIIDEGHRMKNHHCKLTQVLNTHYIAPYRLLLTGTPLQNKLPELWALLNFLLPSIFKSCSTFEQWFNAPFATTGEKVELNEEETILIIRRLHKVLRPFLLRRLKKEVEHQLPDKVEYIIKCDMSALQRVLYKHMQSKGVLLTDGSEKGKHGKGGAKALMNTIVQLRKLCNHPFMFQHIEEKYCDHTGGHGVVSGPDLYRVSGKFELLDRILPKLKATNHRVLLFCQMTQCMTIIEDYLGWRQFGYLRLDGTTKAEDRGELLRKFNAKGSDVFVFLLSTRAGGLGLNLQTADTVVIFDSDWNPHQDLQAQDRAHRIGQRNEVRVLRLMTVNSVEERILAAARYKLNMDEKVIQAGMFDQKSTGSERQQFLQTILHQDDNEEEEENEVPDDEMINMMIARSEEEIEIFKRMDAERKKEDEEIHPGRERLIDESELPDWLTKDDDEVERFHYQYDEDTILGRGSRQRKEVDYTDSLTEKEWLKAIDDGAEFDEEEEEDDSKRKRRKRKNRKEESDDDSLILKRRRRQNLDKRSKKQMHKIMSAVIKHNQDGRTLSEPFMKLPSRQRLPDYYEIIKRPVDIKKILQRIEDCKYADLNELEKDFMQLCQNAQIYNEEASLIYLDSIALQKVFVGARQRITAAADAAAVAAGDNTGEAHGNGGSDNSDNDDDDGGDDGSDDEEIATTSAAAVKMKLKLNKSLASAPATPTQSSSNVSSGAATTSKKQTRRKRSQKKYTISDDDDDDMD

These are yes or no findings as the source states them, for the method shown. In cells and extracts the contact can be indirect. These calls come from enrichment with a bait or labelling near it, and not all partners need be listed.

Consider “BRM, endogenous in S2 cells (from UniProt P25439 1-1638)”, for which the binding entry is listed as “binds”.

Source of the values: PMC4488936.
